Literature values in patent US20070243137A1, “Cell and sub-cell methods for imaging and therapy” (priority 2006, published 2007).
At least one structure is not confirmed: it was looked up by name or label, or the drawing left a doubt.

Settings: cited from earlier work

For `O=C([O-])CN(CCN(CC(=O)[O-])CC(=O)O)CCN(CC(=O)[O-])CC(=O)O.[Gd+3]` [Gd-DTPA, gadolinium diethytriaminepentaacetic acid], the r1 is given as 4.3 (mM-sec)^−1.
